# Source: the supplement of paper PMC3334620
# The full ranking holds about 33,000 sequences; the median of “E-score (-0.5 to 0.5)” is about -0.0059, and the highest 2% start at about 0.26. The list shows a part of the results.
# Target: T1, Cin5 (UniProt P40917)
# T1 sequence: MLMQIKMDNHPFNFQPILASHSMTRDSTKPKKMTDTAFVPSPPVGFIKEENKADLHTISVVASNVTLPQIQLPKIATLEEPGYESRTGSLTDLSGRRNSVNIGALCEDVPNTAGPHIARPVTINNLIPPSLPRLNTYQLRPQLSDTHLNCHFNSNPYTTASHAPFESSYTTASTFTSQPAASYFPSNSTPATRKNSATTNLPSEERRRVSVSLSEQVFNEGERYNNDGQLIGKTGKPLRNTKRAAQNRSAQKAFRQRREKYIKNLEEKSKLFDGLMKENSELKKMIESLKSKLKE
# Assay: PBM E-score (8-mer binding enrichment) (E-score (-0.5 to 0.5)); higher = stronger / more preferred TF binding
# Conditions: protein concentration: 100 nM; construct: GST-full length
# Experimental: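 Universal 'all 10-mer' protein binding microarrays (Agilent AMADID 015681) probed with GST-tagged S. cerevisiae TFs (full-length or DBD) made by in vitro transcription/translation (PURExpress), about 100-200 nM. Bound TF was detected with fluorescent anti-GST. Each ungapped 8-mer (which stands for itself and its reverse complement) is scored by the PBM enrichment score (E-score), a modified Wilcoxon-Mann-Whitney statistic from -0.5 to +0.5, computed with the Universal PBM Analysis Suite. Scale: above 0.35 generally sequence-specific binding.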
row,Sequence,PBM E-score
1,GGACTGAC,-0.188
2,AATCAGAA,0.145
3,ACCCCCCG,-0.443
4,ACTATTTC,0.228
5,GACTAGTA,0.0219
6,TCGGACGA,-0.0197
7,ACTAAAAT,0.223
8,AGCAACTG,0.0467
9,CTATTCCA,0.215
10,ATGCGGCG,0.0727
11,AATCCAGA,0.218
12,GTCCTGAA,-0.197
13,CTGGACAC,-0.252
14,AACATTCT,0.0562
15,AACTCGTG,0.0764
16,AAACTGTT,0.189
17,CAGAAGAA,-0.0652
18,AGCCCGGG,-0.183
19,AATCGCCC,-0.116
20,AGGATCAT,-0.136
21,GCGGGGTA,0.0248
22,TACAATGA,-0.0302
23,GGTGAGGA,-0.0487
24,CTAAATAA,0.0261
25,GCAATCAA,0.195

row,Sequence,PBM E-score
1,CCGCGACA,0.0648
2,ATTACCCC,-0.0139
3,TAGCAAGA,-0.0558
4,ATTTGGAC,0.0481
5,GCTACTAC,0.222
6,CGGTCATA,0.0647
7,AAGCACGT,0.109
8,GGTAGGAC,-0.121
9,AGGTCACG,-0.107
10,ATAGCGGC,0.00766
11,ATATTAGC,0.128
12,AATGACAC,0.115
13,CCTAGCAC,-0.215
14,CCGGACAG,-0.0739
15,CATAGAGA,0.0311
16,CAATTACA,0.242
17,ACCACCGC,-0.0868
18,AATGGCAA,0.0889
19,AGACGCTA,-0.199
20,CCCGGAAG,-0.0981
21,CCCGCCTC,-0.142
22,ACTATAGC,-0.138
23,CTGTACAC,-0.0408
24,ACGTTCAC,0.0656
25,CGGAAATC,0.137

row,Sequence,PBM E-score
1,CTCGACGC,0.0204
2,TAAGATTA,0.274
3,CCAGATGG,-0.193
4,CCATCTAC,0.0768
5,CGCAAAGA,0.143
6,ATTAATGC,0.19
7,ACCCGCTC,-0.209
8,GAATGCAC,0.0534
9,CACAAGAG,-0.00984
10,ATGGATCG,0.0514
11,GCTGCTCA,-0.141
12,AGAACTAC,0.0709
13,CACCGCTG,-0.298
14,GAAGCCAA,-0.0726
15,CAGCATGC,-0.0241
16,ATGGCTCG,0.0101
17,CGACAAGA,0.106
18,ATCCTTCC,-0.2
19,CTCACTCA,0.0762
20,TGCGCGCA,0.14
21,ATAGGGAA,-0.0953
22,GGCACTCA,-0.309
23,AAGTGGGT,0.0634
24,AAGCGCGT,-0.0236
25,ACATTCGC,0.0422

row,Sequence,PBM E-score
1,AAGAGTAG,-0.0354
2,ACCAACGT,0.0694
3,CGTGAAGC,-0.158
4,TGAGGAAA,-0.0184
5,ACGGCTAC,-0.0179
6,CCGGACCC,-0.179
7,CAGTTAAG,0.156
8,AAGGACGC,-0.0754
9,ATGAAAAA,0.252
10,ACCGGTCT,-0.26
11,AGTTTCAG,-0.0868
12,GACAACGA,0.0629
13,ATCAATAC,0.121
14,GAGATGCC,-0.00921
15,CCCTTATC,-0.0375
16,TAGGTCGA,-0.065
17,CTGTGAAC,-0.0835
18,CTTTAGCC,0.0446
19,GGCCCCTA,-0.237
20,ATAGTGGA,0.145
21,CATCGTGA,-0.166
22,CGTTCGTC,0.0235
23,ATACAACA,0.272
24,GTAGGCTA,-0.196
25,AGAGCTCC,-0.315

row,Sequence,PBM E-score
1,ACAAACGG,0.105
2,ACTCACTA,0.169
3,ATCGGCAG,-0.109
4,GTAGATCA,0.108
5,GAGATAAC,0.0518
6,GTAAGTAA,0.24
7,CGAGTAGC,-0.0354
8,ATACAGAC,0.0865
9,ATAGAGAC,-0.0684
10,CTTATTCC,0.117
11,AGCTTCAC,-0.101
12,CGGCGACC,-0.112
13,TACCTGGA,0.0158
14,AAAAGATC,-0.00227
15,TGAAGTAA,0.158
16,ACTTAACC,0.0892
17,GAGCTCCC,-0.17
18,ATCAGGAG,-0.00213
19,AGCGCCAC,-0.0305
20,ACGCGCTC,-0.0527
21,CACCATGG,-0.229
22,GTAATCTA,0.354
23,ATCTACAA,0.00821
24,ACATGCGC,0.0846
25,AAGGGGAC,-0.178

row,Sequence,PBM E-score
1,TGCTATAA,0.0502
2,AATAAATT,0.19
3,AAGTGGAC,-0.0963
4,ATAGTGAG,0.0474
5,CACATGCA,-0.0466
6,CCCTGTCG,-0.196
7,ATCAGGTA,0.0912
8,AGCCTAAA,-0.0722
9,GCTATACC,0.0123
10,AGCACCTG,-0.215
11,CGCTCACC,-0.0238
12,ACCTGCCC,-0.155
13,AATGCCAA,0.0585
14,AAACAAGC,0.0602
15,AACGGTCC,-0.219
16,GTTACGGA,-0.122
17,TACTCGCA,0.182
18,AAGCTACC,0.106
19,ACACTCAA,0.178
20,GGCCCGAC,-0.256
21,AACTCTTA,0.0306
22,CGCACCGC,-0.189
23,ATCGAGGA,0.0713
24,ATGTATTA,0.233
25,GACATCGA,-0.221

# Reformatted with bars between the fields: entries from further up.
row | Sequence | PBM E-score
4 | GTAGATCA | 0.108
5 | GAGATAAC | 0.0518
6 | GTAAGTAA | 0.24
7 | CGAGTAGC | -0.0354
8 | ATACAGAC | 0.0865
9 | ATAGAGAC | -0.0684
10 | CTTATTCC | 0.117
11 | AGCTTCAC | -0.101
12 | CGGCGACC | -0.112
13 | TACCTGGA | 0.0158
14 | AAAAGATC | -0.00227
15 | TGAAGTAA | 0.158
16 | ACTTAACC | 0.0892
17 | GAGCTCCC | -0.17
18 | ATCAGGAG | -0.00213
19 | AGCGCCAC | -0.0305
20 | ACGCGCTC | -0.0527
21 | CACCATGG | -0.229
22 | GTAATCTA | 0.354
23 | ATCTACAA | 0.00821
24 | ACATGCGC | 0.0846
25 | AAGGGGAC | -0.178
1 | TGCTATAA | 0.0502
2 | AATAAATT | 0.19
3 | AAGTGGAC | -0.0963
4 | ATAGTGAG | 0.0474
5 | CACATGCA | -0.0466
6 | CCCTGTCG | -0.196
7 | ATCAGGTA | 0.0912
8 | AGCCTAAA | -0.0722
9 | GCTATACC | 0.0123
10 | AGCACCTG | -0.215
11 | CGCTCACC | -0.0238
12 | ACCTGCCC | -0.155
13 | AATGCCAA | 0.0585
14 | AAACAAGC | 0.0602
15 | AACGGTCC | -0.219
16 | GTTACGGA | -0.122
17 | TACTCGCA | 0.182
18 | AAGCTACC | 0.106
19 | ACACTCAA | 0.178
20 | GGCCCGAC | -0.256
21 | AACTCTTA | 0.0306
22 | CGCACCGC | -0.189
23 | ATCGAGGA | 0.0713
24 | ATGTATTA | 0.233

# The listing continues:

row,Sequence,PBM E-score
1,ACTCTCTG,0.0311
2,ATTTGTTC,0.307
3,CGCACGCC,-0.0827
4,GGTCGTAA,-0.00186
5,AAGGTGCG,-0.159
6,GCTGTACC,-0.0973
7,CCGGGACA,-0.059
8,AGGATTAG,0.0904
9,AAAGCAGT,0.177
10,GAGACAAC,0.136
11,ACTCAGAA,0.105
12,AGGTTAAT,-0.0001
13,CAGACCTG,-0.0611
14,AACGAGGG,-0.149
15,CTTATCTC,0.0536
16,GAGTGTCC,0.0618
17,AATAACCT,0.061
18,AGGCATAC,0.0609
19,ACATTCAA,0.0897
20,CGGAATGC,0.19
21,ACGTCACG,0.0314
22,AATGGCCC,-0.253
